At least one compound was matched to its structure with a doubt left.
Key:
[1] = tested on: ovarian cancer cells ADR-RES; assay: Cell viability (CellTiter-Glo), drug resistant cells; format: cell-based, human; conditions: compared to doxorubicin, FIG. 3b
[2] = tested on: various cancer cell lines; assay: Cell viability (CellTiter-Glo), various cancer cell lines; format: cell-based, human; conditions: FIG. 3c, cell lines of Table 4
[3] = tested on: Rap 1A prenylation; assay: Western blot of unprenylated Rap1A in MM cells; format: cell-based, human; conditions: RPMI-8226, 48 hour period, FIG. 8a
[4] = tested on: Rap 1A prenylation; assay: In vivo study, unprenylated Rap1A in peripheral blood of Vk*MYC transgenic mice; set-up: species or system mouse; conditions: 1 mg/Kg and 5 mg/Kg, 17 doses, intraperitoneal, FIG. 8b

COc1ccc(NC(=O)c2cccc(-c3nc(NC(P(=O)(O)O)P(=O)(O)O)c4ccsc4n3)c2)cc1F [Compound I-37, (((2-(3-((3-fluoro-4-methoxyphenyl)carbamoyl)phenyl)thieno[2,3-d]pyrimidin-4-yl)amino)methylene)bis(phosphonic acid)]
antiproliferative effect [1]: equivalent or more effective | antiproliferative effect in various cancer cell lines [2]: inhibit a variety of cancer types | intracellular levels of unprenylated Rap1A [3]: dose dependent inhibition | intracellular levels of unprenylated Rap 1A in peripheral blood [4]: dose dependent inhibition

— patent publication US11279719B2, “Substituted bicyclic pyrimidine-based compounds and compositions and uses thereof” (priority 2017, dated 2022)
